Assay results reported in article PMC3942315, “Structural Insights Into DNA Repair by RNase T—An Exonuclease Processing 3′ End of Structured DNA in Repair Pathways” (PLoS Biology, 2014).
Results are given in words; binding and its absence hold for the method and conditions named.

B1: ExoI (enzyme, UniProt P04995 1-475)
chain: MMNDGKQQSTFLFHDYETFGTHPALDRPAQFAAIRTDSEFNVIGEPEVFYCKPADDYLPQPGAVLITGITPQEARAKGENEAAFAARIHSLFTVPKTCILGYNNVRFDDEVTRNIFYRNFYDPYAWSWQHDNSRWDLLDVMRACYALRPEGINWPENDDGLPSFRLEHLTKANGIEHSNAHDAMADVYATIAMAKLVKTRQPRLFDYLFTHRNKHKLMALIDVPQMKPLVHVSGMFGAWRGNTSWVAPLAWHPENRNAVIMVDLAGDISPLLELDSDTLRERLYTAKTDLGDNAAVPVKLVHINKCPVLAQANTLRPEDADRLGINRQHCLDNLKILRENPQVREKVVAIFAEAEPFTPSDNVDAQLYNGFFSDADRAAMKIVLETEPRNLPALDITFVDKRIEKLLFNYRARNFPGTLDYAEQQRWLEHRRQVFTPEFLQGYADELQMLVQQYADDKEKVALLKALWQYAEEIV
B2: ExoX (enzyme, UniProt P0AEK0 1-220)
chain: MLRIIDTETCGLQGGIVEIASVDVIDGKIVNPMSHLVRPDRPISPQAMAIHRITEAMVADKPWIEDVIPHYYGSEWYVAHNASFDRRVLPEMPGEWICTMKLARRLWPGIKYSNMALYKTRKLNVQTPPGLHHHRALYDCYITAALLIDIMNTSGWTAEQMADITGRPSLMTTFTFGKYRGKAVSDVAERDPGYLRWLFNNLDSMSPELRLTLKHYLENT

Experiments:
ExoI (E. coli) = ExoI (E. coli) (UniProt P04995); assay: dynamic light scattering; purified recombinant proteins in solution; conditions not given; both purified
ExoX (E. coli) = ExoX (E. coli) (UniProt P0AEK0); assay: as above

| Binder | binding (ExoI (E. coli)) | binding (ExoX (E. coli)) |
| --- | --- | --- |
| B1 | no binding | – |
| B2 | – | no binding |
